Measurements reported in patent US20100330094A1.
These are yes or no findings as the source states them, for the method shown. Some binding calls cover weakened binding; strength is not graded here.

Columns and labels:
[1] = molecular target: NusA-cynomolgus IP-10 fusion protein (cynomolgus); assay: capture ELISA: NI-0801 coated, NusA fusion protein in a concentration range, anti-NusA detection
[2] = molecular target: NusA-cynomolgus IP-10 fusion protein (cynomolgus); assay: capture ELISA: NI-0801 coated, NusA fusion protein in a concentration range, anti-NusA detection (FIG. 7)
[3] = molecular target: NusA-cynomolgus IP-10 fusion protein (cynomolgus); assay: capture ELISA: NI-0801 coated, concentration range of NusA fusion protein, revealed with anti-NusA antibody

Measured: binding

B1: NI-0801, IgG1 format (antibody, V domains shown)
VH: QVQLVESGGGVVQPGRSLRLSCAASGFTFSNSGIHWVRQAPGKGLEWVAVISYDGSNKYYADSVKGRFTISRDNSKNTLYLQMNSLRAEDTAVYYCARLRDNAEYTDYWGQGTLVTVSS
VL: NFMLTQPHSVSESPGKTVTISCTGSGGSIASNYVQWYQQRPGSSPTTVIYEDNQRPSGVPDRFSGSIDSSSNSASLTISGLKTEDEADYYCQSYDPLPVWVFGGGTKLTVLG
binds: all assays above
